Library screening results

The values are deposited in ChEMBL (CHEMBL3988442, “University of Dundee, Small-Polar-MMV Screening Library” (2021)).

Mtb heat-shock: 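Assay on Mycobacterium tuberculosis, filed only as a heat shock assay from Cornell; the read-out is not stated. The concentration is filed as 10 mM, unlikely as a test dose, so the dose is not known. Higher reads as stronger inhibition (inferred: compounds with an IC50 in retests scored well above the rest). About 69,000 compounds were tested under these conditions; 1.4% (about 930) showed 50% or more at least once.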
Mtb growth Cornell: 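Whole-cell assay for inhibitors of Mycobacterium tuberculosis growth, labelled Cornell in the record; the read-out is not stated. The concentration is filed as 10 mM, unlikely as a test dose, so the dose is not known. Higher means stronger inhibition (inferred from two other growth screens of the library). Size under these conditions: about 53,000 compounds, about 900 of them at 50% or above in at least one test.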

The filed quantity is “Percent Effect” (%). The record does not define 0% and 100%; most values in the screen are far below 50% and negative numbers occur (in some assays of this library far below -100). This is an unselected part of the compounds tested. A dash means the value is not listed here; it may have been measured.

For COCC1CN(Cc2ccc(C)o2)Cc2cnn(CC3CCOCC3)c21.O=C(O)C(F)(F)F.O=C(O)C(F)(F)F (stereo not drawn) the result was Mtb heat-shock: -42.45%; Mtb growth Cornell: -28.91%.
For [H][C@]12CC[C@]([H])(CN(C(=O)c3ccc4[nH]cnc4c3)C1)N(CC=C(C)C)C2 the result was Mtb heat-shock: 6.366%; Mtb growth Cornell: 13.54%.
For COCCCNc1ncnc2c1CCN(C(=O)CC1C=CCC1)CC2 (stereo not drawn) the result was Mtb heat-shock: -2.496%.
For Nc1nccnc1C1CN(C(=O)c2ccnnc2)CCO1 (stereo not drawn) the result was Mtb heat-shock: 5.964%; Mtb growth Cornell: 3.351%.
For CC(C)(C)C(=O)N1CCC2(CC1)CC(Oc1ccccc1)CO2 (stereo not drawn) the result was Mtb heat-shock: -9.577%; Mtb growth Cornell: -20.65%.
For O=C1CC(N(C(=O)c2ccc(F)c(F)c2)C2CC2)C(=O)N1 (stereo not drawn) the result was Mtb heat-shock: -7.103%.
For O=C(O)C(F)(F)F.[H][C@@]12C[C@H](C(=O)NCC(C)C)[C@@]([H])(CN(CCC(C)C)C1)O2 the result was Mtb heat-shock: 22.63%; Mtb growth Cornell: 10.23%.
For CCCNCc1ccc(-c2cc(N)nc3[nH]ccc23)cc1 the result was Mtb heat-shock: 7.774%; Mtb growth Cornell: 7.529%.
For [H][C@@]12CCN(C[C@@H]1CN1CCCCC1)[C@@H](CNS(=O)(=O)c1ccccc1)C2 the result was Mtb heat-shock: -1.491%.
For CCc1nc2c(s1)C(N(C)C(=O)c1csnn1)CCC2 (stereo not drawn) the result was Mtb heat-shock: 10.2%.
For CN(C)C(=O)c1cccc(CCNS(=O)(=O)c2ccccc2)c1 the result was Mtb heat-shock: -3.399%.
For O=C(O)C(F)(F)F.[H][C@@]12CN(Cc3cccc(C#N)c3)C[C@]1([H])CN(c1ncccn1)C2 the result was Mtb heat-shock: 29.7%; Mtb growth Cornell: 6.902%.
For Cc1csc(C2CCCCN2C(=O)c2cc(C(C)C)[nH]n2)n1 (stereo not drawn) the result was Mtb heat-shock: 4.251%.
For CC1(CO)COC(Cc2ccc(Cl)cc2)=N1 (stereo not drawn) the result was Mtb heat-shock: 4.492%; Mtb growth Cornell: -3.017%.
For Cc1ccc(-c2noc(CN3CCC(N4CCNC4=O)CC3)n2)cc1 the result was Mtb heat-shock: -15.12%; Mtb growth Cornell: -55.36%.
For FC(F)(F)CCN(Cc1ccon1)C1CCCC1 the result was Mtb heat-shock: -18.16%; Mtb growth Cornell: -14.86%.
For O=C(c1ccc(-n2cncn2)cc1)N1CCN(c2cnccn2)CC1 the result was Mtb heat-shock: -9.224%; Mtb growth Cornell: -10.79%.
For CC(Nc1cccc(COCc2ccco2)c1)C(=O)NC(N)=O (stereo not drawn) the result was Mtb heat-shock: 0.6149%; Mtb growth Cornell: 25.61%.
For CCNc1ncc(C(=O)NCc2csc(-c3cnccn3)n2)cn1 the result was Mtb heat-shock: -117%.
For Brc1cccc(-c2noc(C3COCCO3)n2)c1 (stereo not drawn) the result was Mtb heat-shock: 7.314%; Mtb growth Cornell: 15.14%.
For Cc1nn(C)c(C)c1CNCc1ccc(N2CCOCC2)nc1.Cl the result was Mtb heat-shock: -10.27%.
For Cc1nc(C2CCCN2CC(=O)NCCOc2ccccc2)no1 (stereo not drawn) the result was Mtb heat-shock: 3.236%.
For Cc1nc(N2CCN(C)CC2)ncc1C(=O)N1CCCCCC1 the result was Mtb heat-shock: -16.63%.
For NC(=O)CCNC(=O)C1(N2CCCCC2)Cc2ccccc2C1 the result was Mtb heat-shock: -26.68%; Mtb growth Cornell: -15.63%.
For Cc1ccc(C(=O)Nc2ccc(S(=O)(=O)/N=C3\CCCN3C)cc2)s1 the result was Mtb heat-shock: 14.71%.
For CN(CC(=O)NC(N)=O)CC1(c2ccc(Br)cc2)CC1 the result was Mtb heat-shock: 6.811%.
For COc1ncccc1C(=O)N1CCCC1c1nc(-c2ccccc2)n[nH]1 (stereo not drawn) the result was Mtb heat-shock: -5.302%; Mtb growth Cornell: -19.38%.
For Cc1cnn(CCNc2cnc3ccccc3n2)c1 the result was Mtb heat-shock: -2.476%.
For CNC(=O)c1cnc(/C=C/c2cc(OC)c3c(c2)OCCO3)s1 the result was Mtb heat-shock: 2.119%; Mtb growth Cornell: 22.55%.
For Cc1ccc(OCC2CCCN(C(=O)CN3CCOCC3)C2)cc1 (stereo not drawn) the result was Mtb heat-shock: -23.48%; Mtb growth Cornell: 29.85%.
For Cc1c(Cl)cc(C(=O)N(CCO)Cc2nccn2C)cc1Cl the result was Mtb heat-shock: -17.7%.
For COCCCNC(=O)CN1CCC(c2ccccc2)C1 (stereo not drawn) the result was Mtb heat-shock: -14.18%; Mtb growth Cornell: 4.079%.
For COc1cccc(NC(=O)N(CCO)Cc2ccsc2)c1 the result was Mtb heat-shock: 1.153%; Mtb growth Cornell: 0.0257%.
For CCc1nnc2ccc(NCC3(N4CCCCC4)CCOCC3)nn12 the result was Mtb heat-shock: -6.059%.
For CC(C)S(=O)(=O)NCC(Cc1cccc(F)c1)N1CCNC1=O (stereo not drawn) the result was Mtb heat-shock: -11.19%; Mtb growth Cornell: 10.23%.
For CC(O)CN1CCc2[nH]nc(C(c3ccccc3)c3ccccc3)c2C1 (stereo not drawn) the result was Mtb heat-shock: -17.87%; Mtb growth Cornell: 0.02133%.
For CC(CS(C)(=O)=O)N(C(=O)c1ccc(Cl)s1)C1CC1 (stereo not drawn) the result was Mtb heat-shock: -0.9036%; Mtb growth Cornell: 7.86%.
For [H][C@@]12CN(C(=O)CC3CC3)C[C@]1([H])C(=O)N(CCOC)C2 the result was Mtb heat-shock: -6.353%.
For CCOC(=O)C1(Cc2ccccc2)CCCN(Cc2nccn2CC)C1 (stereo not drawn) the result was Mtb heat-shock: 6.851%; Mtb growth Cornell: 27.76%.
For COC(=O)c1sccc1S(=O)(=O)N1CCC(Oc2ncccc2Cl)CC1 the result was Mtb heat-shock: -25.44%; Mtb growth Cornell: 63.53%.
For O=C(CCn1cccn1)N1CCN(CC(F)F)CC1 the result was Mtb heat-shock: 24.77%; Mtb growth Cornell: 29.77%.
For Cc1ccc(CN2CCC3(CC2)CCN(Cc2ccco2)CC3)cc1.O=C(O)C(F)(F)F.O=C(O)C(F)(F)F the result was Mtb heat-shock: -14.47%; Mtb growth Cornell: -2.745%.
For Cc1ccc(CC(=O)Nc2ccc(CS(C)(=O)=O)c(F)c2)cc1 the result was Mtb heat-shock: -12.12%; Mtb growth Cornell: 9.463%.
For O=C(O)C(F)(F)F.O=C(O)C(F)(F)F.[H][C@@]12C[C@@H](C(=O)NC)N(C(C)C)[C@]1([H])CN(Cc1c(C)noc1C)C2 the result was Mtb heat-shock: 6.537%; Mtb growth Cornell: -11.99%.
For O=C(Cc1n[nH]c(-c2cncc(Br)c2)n1)NCc1cccnc1 the result was Mtb heat-shock: -42.86%; Mtb growth Cornell: 2.105%.
For Cn1c(C2CC2)nc2c1CCN(CC(=O)Nc1nccs1)C2 the result was Mtb heat-shock: -3.274%.
For COc1ccccc1OCCNC(=O)CN1CCc2cncnc2C1 the result was Mtb heat-shock: -10.98%; Mtb growth Cornell: 3.055%.
For [H][C@]12CCN(Cc3cc(=O)n4c5c(cccc35)CCC4)C[C@]([H])(CC1)N2 the result was Mtb heat-shock: -15.55%.

For reference, 6 entries once more:

| structure | Mtb heat-shock | Mtb growth Cornell |
|---|---|---|
| `CC(C)S(=O)(=O)NCC(Cc1cccc(F)c1)N1CCNC1=O` (stereo not drawn) | -11.19 | 10.23 |
| `Cc1c(Cl)cc(C(=O)N(CCO)Cc2nccn2C)cc1Cl` | -17.7 | - |
| `CCc1nnc2ccc(NCC3(N4CCCCC4)CCOCC3)nn12` | -6.059 | - |
| `O=C(c1ccc(-n2cncn2)cc1)N1CCN(c2cnccn2)CC1` | -9.224 | -10.79 |
| `FC(F)(F)CCN(Cc1ccon1)C1CCCC1` | -18.16 | -14.86 |
| `Cc1nc(N2CCN(C)CC2)ncc1C(=O)N1CCCCCC1` | -16.63 | - |